The list shows a part of the results.
What was measured:
Assay in all cases: log2 fold change, soluble protein after heating vs DMSO (PISA); higher = thermal stabilisation; K562 lysate, 10 uM; active = over 0.2 and 3.5 SD of the protein, either way, in both replicates (recomputed)
[1] = compound: C#Cc1cccc(Nc2ncnc3cc(OCCOC)c(OCCOC)cc23)c1 [erlotinib]
How it was run: (§1)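 The values are log-two fold changes in thermal stability compared with solvent controls and come from duplicates. They were obtained by TMTpro 16plex LC-MS/MS, with channel sums equalised, on the supernatant after 21,000xg for 90 min. That supernatant came from crude K562 extract at 1 mg/mL protein treated with 10 μM compound for 30 min, heated for 3 min across 48°C-58°C, pooled and brought to 0.5% NP-40 at 4°C.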

Chains of the proteins cited; added tags and fusions are not shown. Lines headed by an entry give the natural chain unless they say otherwise; changes in a name come on top.
UniProt Q9NRY2: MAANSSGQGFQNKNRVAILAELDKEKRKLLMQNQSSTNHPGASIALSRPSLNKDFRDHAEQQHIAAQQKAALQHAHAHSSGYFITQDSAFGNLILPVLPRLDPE
UniProt P42858, whole entry, looked up: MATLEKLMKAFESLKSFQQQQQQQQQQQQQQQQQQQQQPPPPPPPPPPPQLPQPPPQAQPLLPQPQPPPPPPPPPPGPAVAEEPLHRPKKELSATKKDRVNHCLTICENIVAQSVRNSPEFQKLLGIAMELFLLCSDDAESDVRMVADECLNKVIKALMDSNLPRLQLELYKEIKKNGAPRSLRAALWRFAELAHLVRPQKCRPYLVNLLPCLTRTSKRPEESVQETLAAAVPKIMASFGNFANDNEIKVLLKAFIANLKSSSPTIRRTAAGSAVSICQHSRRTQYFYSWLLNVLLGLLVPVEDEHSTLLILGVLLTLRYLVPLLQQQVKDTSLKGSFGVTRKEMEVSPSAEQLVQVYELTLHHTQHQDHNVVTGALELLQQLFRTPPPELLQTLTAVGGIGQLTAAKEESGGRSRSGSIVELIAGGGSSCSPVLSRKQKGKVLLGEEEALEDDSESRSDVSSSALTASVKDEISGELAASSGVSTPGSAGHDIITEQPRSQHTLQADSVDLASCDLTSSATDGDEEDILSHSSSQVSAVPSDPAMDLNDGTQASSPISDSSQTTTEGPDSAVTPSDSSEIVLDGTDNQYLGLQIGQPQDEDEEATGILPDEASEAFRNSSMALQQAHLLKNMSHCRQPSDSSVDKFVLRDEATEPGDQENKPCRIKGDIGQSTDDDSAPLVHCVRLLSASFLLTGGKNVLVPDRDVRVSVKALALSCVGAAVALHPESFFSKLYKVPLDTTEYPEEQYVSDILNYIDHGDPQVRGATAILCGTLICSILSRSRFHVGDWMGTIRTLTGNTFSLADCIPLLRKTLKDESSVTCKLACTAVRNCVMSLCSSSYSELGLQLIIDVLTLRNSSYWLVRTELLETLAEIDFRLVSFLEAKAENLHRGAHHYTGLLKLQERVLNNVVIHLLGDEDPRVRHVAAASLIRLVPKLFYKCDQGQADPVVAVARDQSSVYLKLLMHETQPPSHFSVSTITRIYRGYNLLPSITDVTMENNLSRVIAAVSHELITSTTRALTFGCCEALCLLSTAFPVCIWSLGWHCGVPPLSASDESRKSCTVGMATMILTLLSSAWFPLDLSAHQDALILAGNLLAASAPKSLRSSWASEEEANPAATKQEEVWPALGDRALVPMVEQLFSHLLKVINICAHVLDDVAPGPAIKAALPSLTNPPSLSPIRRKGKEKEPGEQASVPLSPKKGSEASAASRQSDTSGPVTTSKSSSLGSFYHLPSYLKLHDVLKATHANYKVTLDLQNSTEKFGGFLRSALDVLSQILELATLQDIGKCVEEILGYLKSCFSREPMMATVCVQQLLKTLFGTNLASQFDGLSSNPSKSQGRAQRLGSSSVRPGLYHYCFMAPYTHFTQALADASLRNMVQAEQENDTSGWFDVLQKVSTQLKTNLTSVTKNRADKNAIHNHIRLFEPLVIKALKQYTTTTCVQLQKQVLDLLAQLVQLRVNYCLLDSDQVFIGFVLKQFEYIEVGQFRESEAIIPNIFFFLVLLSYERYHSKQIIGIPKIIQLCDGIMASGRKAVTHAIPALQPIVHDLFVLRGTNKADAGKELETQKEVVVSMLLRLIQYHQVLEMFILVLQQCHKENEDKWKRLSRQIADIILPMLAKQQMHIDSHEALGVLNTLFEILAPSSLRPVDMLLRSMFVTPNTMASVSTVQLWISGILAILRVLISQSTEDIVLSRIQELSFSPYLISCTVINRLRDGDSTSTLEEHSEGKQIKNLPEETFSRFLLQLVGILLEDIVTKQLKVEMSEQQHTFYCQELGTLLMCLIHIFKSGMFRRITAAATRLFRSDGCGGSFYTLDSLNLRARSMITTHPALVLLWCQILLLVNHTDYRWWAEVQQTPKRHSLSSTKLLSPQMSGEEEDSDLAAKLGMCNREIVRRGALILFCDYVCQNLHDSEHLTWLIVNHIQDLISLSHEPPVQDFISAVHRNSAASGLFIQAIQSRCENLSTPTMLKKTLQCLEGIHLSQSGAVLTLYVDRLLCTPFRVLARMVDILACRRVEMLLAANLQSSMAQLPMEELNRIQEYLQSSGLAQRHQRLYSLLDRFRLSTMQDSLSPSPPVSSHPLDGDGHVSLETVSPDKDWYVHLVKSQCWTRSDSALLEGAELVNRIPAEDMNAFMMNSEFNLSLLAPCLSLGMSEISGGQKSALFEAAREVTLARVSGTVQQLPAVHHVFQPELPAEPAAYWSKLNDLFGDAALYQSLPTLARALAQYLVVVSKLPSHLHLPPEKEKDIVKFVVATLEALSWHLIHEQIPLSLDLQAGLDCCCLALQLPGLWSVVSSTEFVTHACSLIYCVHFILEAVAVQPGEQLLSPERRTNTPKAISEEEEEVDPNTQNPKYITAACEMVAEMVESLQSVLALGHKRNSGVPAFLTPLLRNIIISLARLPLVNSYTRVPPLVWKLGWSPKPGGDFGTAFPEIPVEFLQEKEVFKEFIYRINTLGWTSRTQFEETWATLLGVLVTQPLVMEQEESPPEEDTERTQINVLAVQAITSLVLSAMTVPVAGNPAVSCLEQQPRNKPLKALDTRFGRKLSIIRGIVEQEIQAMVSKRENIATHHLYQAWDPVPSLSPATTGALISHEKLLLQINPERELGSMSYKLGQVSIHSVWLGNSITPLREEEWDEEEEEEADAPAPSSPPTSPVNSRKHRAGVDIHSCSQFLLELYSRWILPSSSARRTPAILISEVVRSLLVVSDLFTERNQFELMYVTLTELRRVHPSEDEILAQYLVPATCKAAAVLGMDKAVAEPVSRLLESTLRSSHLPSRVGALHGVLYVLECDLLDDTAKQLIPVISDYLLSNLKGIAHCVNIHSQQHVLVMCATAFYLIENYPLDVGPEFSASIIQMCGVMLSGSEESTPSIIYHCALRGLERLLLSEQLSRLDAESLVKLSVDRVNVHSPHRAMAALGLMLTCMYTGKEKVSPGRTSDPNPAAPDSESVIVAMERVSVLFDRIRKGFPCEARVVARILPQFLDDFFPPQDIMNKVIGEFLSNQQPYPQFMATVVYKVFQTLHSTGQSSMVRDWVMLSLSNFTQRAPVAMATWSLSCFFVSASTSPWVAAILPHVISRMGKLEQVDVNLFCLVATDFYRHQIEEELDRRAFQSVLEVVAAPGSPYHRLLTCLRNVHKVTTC
UniProt P01876, whole entry, looked up: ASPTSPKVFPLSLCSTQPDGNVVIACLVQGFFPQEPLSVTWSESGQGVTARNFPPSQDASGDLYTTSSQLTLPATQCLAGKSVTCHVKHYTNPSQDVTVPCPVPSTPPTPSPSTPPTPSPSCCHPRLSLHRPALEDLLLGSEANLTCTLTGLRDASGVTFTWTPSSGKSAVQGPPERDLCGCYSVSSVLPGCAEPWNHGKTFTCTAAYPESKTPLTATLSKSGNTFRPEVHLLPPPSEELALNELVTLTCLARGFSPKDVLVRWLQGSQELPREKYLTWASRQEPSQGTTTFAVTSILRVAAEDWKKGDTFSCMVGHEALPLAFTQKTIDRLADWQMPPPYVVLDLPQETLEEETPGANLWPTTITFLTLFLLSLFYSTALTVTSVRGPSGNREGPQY
UniProt P41134: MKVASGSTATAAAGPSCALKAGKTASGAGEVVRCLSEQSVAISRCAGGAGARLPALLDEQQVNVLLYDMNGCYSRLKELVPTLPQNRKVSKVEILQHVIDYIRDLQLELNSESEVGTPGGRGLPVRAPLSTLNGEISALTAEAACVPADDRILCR
UniProt Q96CB8, whole entry, looked up: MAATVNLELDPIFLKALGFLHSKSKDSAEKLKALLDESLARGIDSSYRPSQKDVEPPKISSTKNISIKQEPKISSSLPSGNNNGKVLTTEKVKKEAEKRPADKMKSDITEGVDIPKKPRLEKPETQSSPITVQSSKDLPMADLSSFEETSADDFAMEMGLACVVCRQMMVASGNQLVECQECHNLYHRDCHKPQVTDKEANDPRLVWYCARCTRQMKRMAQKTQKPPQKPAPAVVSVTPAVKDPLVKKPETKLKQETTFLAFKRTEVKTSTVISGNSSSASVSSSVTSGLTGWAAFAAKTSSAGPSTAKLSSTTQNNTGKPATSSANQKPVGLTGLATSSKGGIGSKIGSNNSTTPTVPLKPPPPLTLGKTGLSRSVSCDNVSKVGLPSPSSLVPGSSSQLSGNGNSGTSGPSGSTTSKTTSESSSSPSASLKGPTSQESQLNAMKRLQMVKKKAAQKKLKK
UniProt Q9NX55: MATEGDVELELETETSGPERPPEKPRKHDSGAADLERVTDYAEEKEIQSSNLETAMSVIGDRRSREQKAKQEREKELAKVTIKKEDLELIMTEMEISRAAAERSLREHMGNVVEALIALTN
UniProt Q9Y5U9: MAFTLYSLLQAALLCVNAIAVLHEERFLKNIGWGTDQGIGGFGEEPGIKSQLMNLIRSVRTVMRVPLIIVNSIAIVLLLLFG
UniProt P78318: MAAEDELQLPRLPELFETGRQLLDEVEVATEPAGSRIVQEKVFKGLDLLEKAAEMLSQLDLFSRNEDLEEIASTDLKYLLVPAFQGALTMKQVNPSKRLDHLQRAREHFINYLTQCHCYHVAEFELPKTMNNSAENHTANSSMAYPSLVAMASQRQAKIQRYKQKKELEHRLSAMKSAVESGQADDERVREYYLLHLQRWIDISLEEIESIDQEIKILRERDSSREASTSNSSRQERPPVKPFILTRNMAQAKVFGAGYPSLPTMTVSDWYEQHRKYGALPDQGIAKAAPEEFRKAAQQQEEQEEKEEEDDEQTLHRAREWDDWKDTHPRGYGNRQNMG
UniProt Q96FT9: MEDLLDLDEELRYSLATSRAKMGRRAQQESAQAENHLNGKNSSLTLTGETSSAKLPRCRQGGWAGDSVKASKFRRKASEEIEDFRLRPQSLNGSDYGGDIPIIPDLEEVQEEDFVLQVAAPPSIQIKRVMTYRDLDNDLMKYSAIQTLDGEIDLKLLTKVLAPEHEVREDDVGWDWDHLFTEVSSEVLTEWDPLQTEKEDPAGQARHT
UniProt Q9BT40: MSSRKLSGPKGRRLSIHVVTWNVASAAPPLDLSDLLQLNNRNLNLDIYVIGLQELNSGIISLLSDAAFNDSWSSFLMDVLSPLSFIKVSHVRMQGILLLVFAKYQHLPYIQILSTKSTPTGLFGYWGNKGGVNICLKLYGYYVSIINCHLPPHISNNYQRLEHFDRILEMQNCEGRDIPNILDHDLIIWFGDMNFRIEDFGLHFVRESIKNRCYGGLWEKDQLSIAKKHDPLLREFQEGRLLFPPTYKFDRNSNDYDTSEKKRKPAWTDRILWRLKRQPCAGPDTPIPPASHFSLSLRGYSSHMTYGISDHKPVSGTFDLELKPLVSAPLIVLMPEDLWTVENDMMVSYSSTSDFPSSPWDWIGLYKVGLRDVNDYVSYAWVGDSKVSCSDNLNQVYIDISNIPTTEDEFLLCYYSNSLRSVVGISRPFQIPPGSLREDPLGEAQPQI
UniProt Q14642: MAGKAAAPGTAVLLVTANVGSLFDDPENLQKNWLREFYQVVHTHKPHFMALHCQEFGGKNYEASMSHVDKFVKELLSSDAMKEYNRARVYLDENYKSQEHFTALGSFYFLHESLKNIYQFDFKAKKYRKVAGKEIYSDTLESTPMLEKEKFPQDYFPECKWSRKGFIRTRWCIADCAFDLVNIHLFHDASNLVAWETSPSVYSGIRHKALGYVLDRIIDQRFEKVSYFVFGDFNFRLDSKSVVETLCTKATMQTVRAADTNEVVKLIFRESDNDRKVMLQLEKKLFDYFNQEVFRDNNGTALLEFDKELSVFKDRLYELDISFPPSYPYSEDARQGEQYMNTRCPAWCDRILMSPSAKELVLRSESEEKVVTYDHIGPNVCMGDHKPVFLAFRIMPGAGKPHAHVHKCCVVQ
UniProt O14732: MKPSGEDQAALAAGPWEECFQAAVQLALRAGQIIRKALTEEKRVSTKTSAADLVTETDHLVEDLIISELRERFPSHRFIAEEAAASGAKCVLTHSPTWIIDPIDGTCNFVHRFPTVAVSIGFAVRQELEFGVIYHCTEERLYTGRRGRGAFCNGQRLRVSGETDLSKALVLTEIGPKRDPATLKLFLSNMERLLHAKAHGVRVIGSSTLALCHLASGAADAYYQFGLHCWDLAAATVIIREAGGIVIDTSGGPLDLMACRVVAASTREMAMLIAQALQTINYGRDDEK
UniProt Q14773: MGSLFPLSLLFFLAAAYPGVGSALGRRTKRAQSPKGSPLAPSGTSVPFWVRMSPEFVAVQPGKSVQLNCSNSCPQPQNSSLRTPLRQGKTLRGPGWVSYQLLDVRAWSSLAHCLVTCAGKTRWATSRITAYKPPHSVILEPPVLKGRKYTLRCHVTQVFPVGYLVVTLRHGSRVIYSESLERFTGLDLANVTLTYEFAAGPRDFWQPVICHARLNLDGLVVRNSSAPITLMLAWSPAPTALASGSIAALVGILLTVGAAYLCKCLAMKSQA

[2] = compound: C/C(=N\NC(=O)C1=CC(=CC=C1)S(=O)(=O)N2CCOCC2)/C3=C(C=CC(=C3)Cl)O
How it was run: as §1

[3] = compound: C1=CC(=CC=C1C2=NC3=C(N2)C=C(C=C3)C(=O)N)OC4=CC=C(C=C4)Cl
How it was run: as §1

[4] = compound: C1=CC2=C(C=CC(=C2)/C=C\3/C(=O)NC(=NCC4=CC=CS4)S3)N=C1
How it was run: as §1

[5] = compound: C1=CC=C(C=C1)C2=NC(=C(N2)C3=CC=NC=C3)C4=CC(=C(C=C4)Cl)O
How it was run: as §1

[6] = compound: C1=CC=C2C(=C1)C3=NNC4=CC=CC(=C43)C2=O
How it was run: as §1

[7] = compound: C1CCN(C1)C(=O)NC2=CC=CC(=C2)NC3=NC=C(C(=N3)NCCC4=CN=CN4)Br
How it was run: as §1

[8] = compound: C1CN(CCC1(CC2=CC=C(C=C2)Cl)N)C3=NC=NC4=C3C=CN4
How it was run: as §1

[9] = compound: C1COCCN1CCN2C3=CC=CC=C3N=C2NC(=O)C4=CC(=CC=C4)[N+](=O)[O-] [IRAK-1-4 Inhibitor I]
How it was run: as §1

[10] = compound: CC(=O)c1cnc2ccc(-c3cc(Cl)c(O)c(Cl)c3)nc2c1N[C@H]1CC[C@H](CN(C)C)CC1
How it was run: as §1

[11] = compound: CC(C)(C)Cn1c(N)nc2ccc(-c3[nH]c(C(C)(C)C)nc3-c3ccc(F)cc3)nc21 [ralimetinib]
How it was run: as §1

[12] = compound: CC(C)(O)CC(=O)NCCn1ccc2ncnc(Nc3ccc(Oc4cccc(C(F)(F)F)c4)c(Cl)c3)c21
How it was run: as §1

[13] = compound: CC(C)C1=C2N=C(C=C(N2N=C1)NCC3=CC=CC=C3)NCCCCCCN
How it was run: as §1

[14] = compound: CC1=C(C=C(C=C1)NC(=O)C2=CC(=CC=C2)C(C)(C)C#N)NC3=CC4=C(C=C3)N=CN(C4=O)C
How it was run: as §1

[15] = compound: CC1=C(C=C(C=C1)NC(=O)C2=CC(=CC=C2)N(C)C)NC(=O)C3=CC=C(C=C3)O
How it was run: as §1

[16] = compound: CC1=CC=C(C=C1)SC2=C3C=C(SC3=CN=C2)C(=O)N
How it was run: as §1

[17] = compound: CC1=C(C2=C(C=C1)C(=O)C3=CC=CC=C3N2CCCN)C
How it was run: as §1

[18] = compound: C1=CC2=NC=CN=C2C=C1/C=C/3\C(=O)NC(=O)S3
How it was run: as §1

[19] = compound: C=CC(=O)N1CCC[C@@H](n2nc(-c3ccc(Oc4ccccc4)cc3)c3c(N)ncnc32)C1 [ibrutinib]
How it was run: as §1

[20] = compound: CC1=C(C(CC(=O)N1)C2=CC=C(C=C2)C(F)(F)F)C(=O)NC3=C(C=C4C(=C3)C=NN4)F
How it was run: as §1

Measured: log2 fold change

IGLL5 (UniProt B9A064)
inactive: [1] -0.137 | [2] 1.07 | [3] -0.133 | [4] -0.4 | [5] 0.503 | [6] -0.211 | [7] 0.072 | [8] -0.271 | [9] -0.236 | [10] -0.08 | [11] -0.14 | [12] 0.333 | [13] 1.58 | [14] -0.02 | [15] 0.06 | [16] -0.067

INIP (UniProt Q9NRY2)
inactive: [1] 0.075 | [2] 0.051 | [3] -0.116 | [4] -0.178 | [5] -0.088 | [6] -0.245 | [9] -0.001 | [10] -0.09 | [11] 0.051 | [12] 0.039 | [13] -0.018 | [17] -0.085 | [15] -0.126 | [16] 0.029

HTT (UniProt P42858)
inactive: [1] 0.018 | [2] -0.051 | [3] -0.067 | [4] 0.037 | [18] 0.032 | [5] -0.041 | [6] -0.138 | [7] -0.04 | [8] -0.05 | [9] -0.027 | [19] 0.11 | [11] 0.065 | [12] 0.008 | [13] -0.032 | [20] 0.047 | [17] -0.032 | [14] 0.035 | [15] 0.04

IGHA1 (UniProt P01876)
inactive: [1] -0.293 | [2] 1.27 | [3] -0.219 | [4] -0.029 | [18] 0.232 | [5] -0.071 | [6] -0.168 | [7] 0.173 | [8] -0.595 | [9] -0.64 | [19] -0.146 | [11] 0.111 | [12] 0.551 | [13] 1.87 | [20] 2.29 | [17] 0.467 | [14] -0.103 | [15] -0.126

ID1 (UniProt P41134)
inactive: [1] -0.081 | [2] 0.032 | [3] 0.075 | [4] -0.034 | [18] -0.247 | [5] -0.041 | [6] 0.029 | [9] 0.076 | [19] 0.31 | [11] 0.08 | [12] -0.098 | [13] -0.125 | [20] -0.074 | [17] 0.027 | [14] 0 | [15] 0.033

HYOU1 (UniProt J3QL06)
inactive: [1] -0.067 | [2] 0.473 | [3] -0.074 | [4] -0.088 | [5] 0.12 | [6] 0.052 | [7] -0.165 | [8] -0.013 | [9] -0.162 | [10] 0.212 | [11] 0.053 | [12] 0.007 | [13] 0.326 | [20] 0.017 | [17] 0.217 | [14] 0.149 | [15] 0.068 | [16] -0.066

Copied from the entries so far (two entries):
IGHA1 (UniProt P01876)
inactive: [1] -0.293 | [2] 1.27 | [3] -0.219 | [4] -0.029 | [18] 0.232 | [5] -0.071 | [6] -0.168 | [7] 0.173 | [8] -0.595 | [9] -0.64 | [19] -0.146 | [11] 0.111 | [12] 0.551 | [13] 1.87 | [20] 2.29 | [17] 0.467 | [14] -0.103 | [15] -0.126

ID1 (UniProt P41134)
inactive: [1] -0.081 | [2] 0.032 | [3] 0.075 | [4] -0.034 | [18] -0.247 | [5] -0.041 | [6] 0.029 | [9] 0.076 | [19] 0.31 | [11] 0.08 | [12] -0.098 | [13] -0.125 | [20] -0.074 | [17] 0.027 | [14] 0 | [15] 0.033

Further entries:

INTS12 (UniProt Q96CB8)
inactive: [1] 0.059 | [2] 0 | [3] 0.065 | [4] -0.078 | [18] -0.03 | [5] -0.042 | [6] -0.051 | [7] -0.023 | [8] 0.012 | [9] -0.024 | [19] -0.099 | [10] -0.035 | [11] 0.1 | [12] 0.052 | [13] 0.009 | [20] 0.043 | [17] 0.074 | [14] 0.003 | [15] 0.045 | [16] -0.038

HYPK (UniProt Q9NX55)
inactive: [1] 0.004 | [2] 0.035 | [3] 0.016 | [4] 0 | [18] -0.01 | [5] 0.029 | [6] -0.004 | [7] 0.028 | [8] 0.072 | [9] 0.032 | [19] 0.12 | [10] -0.013 | [11] -0.001 | [12] -0.041 | [13] -0.016 | [20] 0.009 | [17] -0.019 | [14] -0.013 | [15] -0.034 | [16] -0.005

IER3IP1 (UniProt Q9Y5U9)
inactive: [1] 0.035 | [2] -0.149 | [3] 0.077 | [4] 0.047 | [18] 0.075 | [5] -0.181 | [6] -0.112 | [7] 0.198 | [8] 0.042 | [9] -0.037 | [19] -0.056 | [10] -0.047 | [11] 0.278 | [12] -0.092 | [13] -0.171 | [20] 0.018 | [17] -0.072 | [15] 0.278 | [16] -0.015

IGBP1 (UniProt P78318)
inactive: [1] -0.021 | [2] 0.05 | [3] 0.03 | [4] 0.016 | [18] -0.037 | [5] 0.016 | [6] -0.011 | [7] 0.007 | [8] 0.004 | [9] 0.006 | [19] 0.003 | [10] -0.011 | [11] 0.003 | [12] 0.007 | [13] -0.003 | [20] 0.013 | [17] -0.01 | [14] 0.029 | [15] -0.013 | [16] -0.012

IFT43 (UniProt Q96FT9)
inactive: [1] 0.106 | [2] -0.147 | [3] -0.318 | [4] -0.384 | [18] -0.141 | [5] -0.129 | [6] -0.046 | [9] -0.31 | [19] 0.015 | [11] -0.713 | [12] 0.029 | [13] 0.169 | [17] 0.149 | [14] 0.079 | [15] 0.187

INPP5K (UniProt Q9BT40)
inactive: [1] -0.065 | [2] 0.051 | [3] 0.054 | [4] 0.15 | [18] -0.064 | [5] -0.175 | [6] -0.221 | [7] -0.01 | [8] 0.104 | [9] -0.037 | [19] -0.297 | [10] -0.019 | [11] 0.071 | [12] 0.034 | [13] -0.044 | [20] 0.079 | [17] -0.009 | [14] 0.002 | [15] 0.123 | [16] 0

IFRD2 isoform 2 (UniProt Q12894)
inactive: [1] -0.084 | [2] -0.123 | [3] -0.032 | [4] -0.068 | [18] 0.144 | [5] 0.01 | [6] 0 | [7] 0.087 | [8] -0.015 | [9] 0.024 | [19] -0.055 | [10] 0.031 | [11] 0.003 | [12] -0.033 | [13] -0.061 | [17] -0.061 | [14] 0.007 | [15] -0.081 | [16] 0.061

IGHG1 (UniProt P01857)
inactive: [1] -0.05 | [2] 0.364 | [3] -0.293 | [4] 0.093 | [18] 0.562 | [5] 0.8 | [6] 0.013 | [9] -0.264 | [19] -0.186 | [11] -0.094 | [12] 0.595 | [13] 1.02 | [20] 1.89 | [17] 0.041 | [14] -0.035 | [15] 0.136

INPP5A (UniProt Q14642)
inactive: [1] 0.001 | [2] 0.055 | [3] 0.042 | [4] -0.096 | [18] -0.14 | [5] -0.014 | [6] -0.04 | [7] 0.148 | [8] -0.319 | [9] -0.144 | [19] 0.059 | [11] 0.126 | [12] -0.122 | [13] 0.028 | [17] 0 | [15] 0.016

IMPA2 (UniProt O14732)
inactive: [1] -0.052 | [2] 0.017 | [3] -0.062 | [4] -0.051 | [18] 0.022 | [5] 0.033 | [6] -0.05 | [7] 0.005 | [8] -0.036 | [9] 0.024 | [19] 0.03 | [10] 0.038 | [11] 0.016 | [12] 0.112 | [13] -0.12 | [17] 0.028 | [14] 0.014 | [15] -0.017 | [16] 0.12

ICAM4 isoform 3 (UniProt Q14773)
inactive: [1] -0.03 | [2] -0.158 | [3] 0.162 | [4] -0.027 | [18] -0.001 | [5] 0.088 | [6] 0.055 | [7] -0.063 | [8] 0.257 | [9] 0.195 | [19] 0.038 | [11] -0.138 | [12] -0.257 | [13] -0.046 | [17] -0.25 | [15] -0.063

INPP4A (UniProt Q96PE3)
inactive: [1] 0.002 | [2] 0.007 | [3] 0.017 | [4] -0.005 | [18] -0.023 | [5] 0.099 | [6] 0.069 | [7] -0.018 | [8] -0.051 | [9] 0.066 | [19] -0.166 | [10] 0.001 | [11] 0.061 | [12] -0.013 | [13] -0.034 | [20] 0.02 | [17] -0.086 | [14] 0.022 | [15] -0.053 | [16] -0.025
